Laboratory results from PMC8508763.

Chains of the proteins cited; added tags and fusions are not shown. Lines headed by an entry give the natural chain unless they say otherwise; changes in a name come on top.
UniProt P31946: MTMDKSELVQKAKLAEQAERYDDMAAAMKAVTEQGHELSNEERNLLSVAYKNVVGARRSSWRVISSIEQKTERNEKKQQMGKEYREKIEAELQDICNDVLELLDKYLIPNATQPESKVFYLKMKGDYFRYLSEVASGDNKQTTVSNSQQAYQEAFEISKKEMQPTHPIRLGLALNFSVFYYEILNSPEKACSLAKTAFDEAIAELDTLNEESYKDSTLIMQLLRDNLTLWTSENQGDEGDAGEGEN

How the values were obtained:
His-SELENOW(U13C) = His-SELENOW(U13C) (UniProt P63300); test: co-IP; HEK293 cells co-transfected with His-SELENOW(U13C) and HA-14-3-3β (WT, C96S, C191S or C96,191S); extracts immunoprecipitated with anti-His, immunoblotted with anti-HA and anti-His
[1] = biological target: GST-SELENOW(U13C) (mouse) (UniProt P63300); test: pull-down; competition: purified GST-SELENOW(U13C) (5 μg) and lysate overexpressing HA-14-3-3β (5 μg) with 0, 1, 2 or 5 μg Trx1-His for 2 h; glutathione or Ni-NTA beads 1 h; non-reducing SDS-PAGE, immunoblot anti-HA; only the target purified

Question: Which results are given for HA-14-3-3β (from UniProt P31946 1-246)?
Answer: binding (His-SELENOW(U13C)): binds; binding [1]: binds

Question: For “HA-14-3-3β(C96S) (from UniProt P31946 1-246)”, which binding (His-SELENOW(U13C)) is on record?
Answer: binds

Results are given in words; binding and its absence hold for the method and conditions named. In cells and extracts the contact can be indirect. Binding can be weak; no strength is given.
